Results reported in the supplement of paper PMC6445147.
Single values of this data set are uncertain.

B1: human tRNA-Pro; a variant is named by its letters at N, in order (parent)
chain: GGCTCGTTGGTCTAGNGGTATGATTCTCGCTTAGGGTGCGAGAGGTCCCGGGTTCNNATCCCGGACGAGCCC

Variants of: B1
Assay: tRNA 3' processing efficiency (processed reads / all reads, maximum-likelihood estimate) (fraction); higher = more efficient 3' processing
Conditions: HEK293T; construct: no Pol-II promoter ((-)CMV library)

Variant | tRNA 3' processing efficiency
GGCTCGTTGGTCTGCGGATATGATTCTCGCTTAGGGTGCGAGAGGTCCCGGGTTCGGATCCCGGACGAGCCC [GGG A14G G15C G18A] | 0.4
GGCTCGTGGGTCTACCGGGATGATTCTCGCTTAGGGTGCGAGAGGTCCCGGGTTCAAATCCCGGACGAGCCC [CAA T8G G15C T19G] | 0.5
TTTTCGTTGGTCTAGGGGTCTGATTCTCGCTTAGGGTGCGAGAGGTCCCGGGTTCTAATCCCGGACGAGCCC [GTA G1T G2T C3T A20C] | 0.2
GGCTCGTTGGTCTGATGGTATGATTCTCGCTTAGGGTGCGAGAGGTCCCGGGTTCTAATCCCGGACGAGCCC [TTA A14G G15A] | 0.5
GGCTCGTCGGTCTAGGGGTATGATTCTCGCTTGGGGTGCGAGAGGTCCCGGGTTCAACTCCCGGACGAGCCC [GAA T8C A33G A58C] | 0.62
GGCTCGTTAGTCTAGAGGAATGATTCTCGCTTAGGGTGCGAGAGGTCCCGGGTTCATATCCCGGACGAGCCC [AAT G9A T19A] | 0.25
GGCTCGTTGGTCTTGCGGTTTGATTCTCGCTTAGGGTGCGAGAGGTCCCGGGTTCTATTCCCGGACGAGCCC [CTA A14T A20T A58T] | 0.33
GGCTCGTTGGTCTAATGGTATGATTCTCGCTTAGGGTGCGAGAGGTCCCGGGTTCGTATCCCGGACGAGCCC [TGT G15A] | 0.67
GGCTCGTTGGTCTAGTGGTATGATTCTCGCTTAGGGTGCGAGAGGTCCCGAGTTCATATCCCGGACGAGCCC [TAT G51A] | 0.57
GGCTCGTTTGTCTAGGGGTGTGATTCTCGCTTAGGGTGCGAGAGGTCCCGGGTTCGACACCCGGACGAGCCC [GGA G9T A20G A58C T59A] | 0.67
GGCTCGTGAGTCTAGGGGTATGATTCTCGCTTAGGGTGCGAGAGGTCCCGGGTTCGATTCCCGGACGAGCCC [GGA T8G G9A A58T] | 0.25
GGCTCGTTGGTCTTGGGGATTGATTCTCGCTTAGGGTGCGAGAGGTCCCGGGTTCGGATCCCGGACGAGCCC [GGG A14T T19A A20T] | 0.5
GGCTCGTTAGTCTAGGGGTTTGATTCTCGCTTAGGGTGCGAGAGGTCCCGGGTTCAAGCCCCGGACGAGCCC [GAA G9A A20T A58G T59C] | 0.25
GGCTCGTTGGTCTAGCGGTATGATTCTCGCTTGGGGTGCGAGAGGTCCCGGGTTCAATGCCCGGACGAGCCC [CAA A33G A58T T59G] | 0.4
GGCTCGTTGGTCTAGTGGTATGATTCTCGCTTGGGGTGCGAGAGGTCCCGGGTTCAATTCCCGGACGAGCCC [TAA A33G A58T] | 0.6
GGCTCGTTGGTCTATATGTATGATTCTCGCTTAGGGTGCGAGAGGTCCCGGGCTCTAATCCCGGACGAGCCC [ATA G15T G17T T53C] | 0.43
GGCTCGTTGGTCTAGTGGTATGATTCTCGCTTAGGGTGCGAGAGGTCCCGGGTTCACTACCCGGACGAGCCC [TAC A58T T59A] | 0.33
GGCTCGTTGGTCTCGCGGATTGATTCTCGCTTAGGGTGCGAGAGGTCCCGGGTTCAACTCCCGGACGAGCCC [CAA A14C T19A A20T A58C] | 0.25

Variant | tRNA 3' processing efficiency
GGCTCGTTGGTCTTGGGGTATGATTCTCGCTTAGGGTGCGAGAGGTCCCAGGTTCTAACCCCGGACGAGCCC [GTA A14T G50A T59C] | 0.25
GGCTCGTTTGTCTAGCGGTATGATTCTCGCTTAGGGTGCGAGAGGTCCCGGGTTCAATGCCCGGACGAGCCC [CAA G9T A58T T59G] | 0.25
GGCTCGTGTGTCTACGGGTATGATTCTCGCTTAGGGTGCGAGAGGTCCCGGGTGCATCTCCCGGACGAGCCC [GAT T8G G9T G15C T54G A58C] | 0.11
GGCTCGTTGGTCTCGGGGAATGATTCTCGCTTAGGGTGCGAGAGGTCCCGGGTTTGAGTCCCGGACGAGCCC [GGA A14C T19A C55T A58G] | 0.33
GGCTCGTTGGTCTAGTGGTGTGATTCTCGCTTAGGGTGCGAGAGGTCCCGAGTTCAAAGCCCGGACGAGCCC [TAA A20G G51A T59G] | 0.55
GGCTCGTTAGTCTAGCGGAATGATTCTCGCTTAGGGTGCGAGAGGTCCCGGGTTCTAAACCCGGACGAGCCC [CTA G9A T19A T59A] | 0.07
GGCTCGTTTGTCTAGCGGTATGTTTCTCGCTTAGGGTGCGAGAGGTCCCGGGTTCATATCCCGGACGAGCCC [CAT G9T A23T] | 0.2
GGCTCGTTAGTCTCGGGGGATGATTCTCGCTTAGGGTGCGAGAGGTCCCGGGTTCAAACCCCGGACGAGCCC [GAA G9A A14C T19G T59C] | 0.14
GGCTCGTTGGTCTCAGTGAATGATTCTCGCTTAGGGTGCGAGAGGTCCCGGGTTCTACTCCCGGACGAGCCC [GTA A14C G15A G17T T19A A58C] | 0.4
GGCTCGTTGGTCTAGTGGAATGATTCTCGCTTAGGGTGCGAGAGGTCCCGGGTTCCAAACCCGGACGAGCCC [TCA T19A T59A] | 0.2
GGCTCGTTGGTCTCGGGGTATGATTCTCGCTTAGGGTGCGAGAGGTCCCGGGTTCCTATCCCGGACGAGCCC [GCT A14C] | 0.25
GGCTCGTCGGTCTAGCGGTATGATTCTCGCTTAGGGTACGAGAGGTCCCGGGTTCCAGTCCCGGACGAGCCC [CCA T8C G38A A58G] | 0.25
GGCTCGTTGGTCTATGCGTATGATTCTCGCTTAGGGTGCGAGAGGTCCCGGGTTCTATTCCCGGACGAGCCC [GTA G15T G17C A58T] | 0.4
GGCTCGTTGGTCTTGGGGAATGATTCTCGCTTAGGGTGCGAGAGGTCCCGGGTTCAAGGCCCGGACGAGCCC [GAA A14T T19A A58G T59G] | 0.01
GGCTCGTTGGTCTAGGGGCATGATTCTCGCTTAGGGTGCGAGAGGTCCCGGGTTCTCACCCCGGACGAGCCC [GTC T19C T59C] | 0.25
GGCTCGTTGGTCTAGGGGGATGATTCTCGCTTAGGGTGCGAGAGGTCCCGGGATCAAGACCCGGACGAGCCC [GAA T19G T53A A58G T59A] | 0.2
GGCTCGTTGGTCTAGTGGTATGATTCTCGCTTAGGGTGCGAGAGGTCCCGGGTTCTATACCCGGACGAGCCC [TTA A58T T59A] | 0.17
GGCTCGTTGGTCTCGGAGGATGATTCTCGCTTAGGGTGCGAGAGGTCCCGGGTTCTGATCCCGGACGAGCCC [GTG A14C G17A T19G] | 0.33

Variants of: B1
Assay: tRNA 5' processing efficiency (processed reads / all reads, maximum-likelihood estimate) (fraction); higher = more efficient 5' processing
Conditions: HEK293T; construct: CMV Pol-II promoter ((+)CMV library, decapped)

Variant | tRNA 5' processing efficiency
GGCTCGTTGGTCTAATGGTATGATTCTCGCTTAGGGTGCGAGAGGTCCCGGGTTCGTATCCCGGACGAGCCC [TGT G15A] | 0.17
